Results are given in words; binding and its absence hold for the method and conditions named. In cells and extracts the contact can be indirect. Some entries that bind do so weakly or less than the wild type.
Target: CDK9 (human (endogenous in Jurkat)) (UniProt P50750)
Assay: co-IP; IP with anti-CDK9 antibody (control IgG) from 100 ug nuclear extracts of Jurkat cells that were mock-treated or treated with JQ1 (0.25 uM), bryostatin-1 (5 nM) or both for 1 hour or 24 hours; Western blot for CycT1 and HEXIM1

Chains of the proteins cited; added tags and fusions are not shown.
UniProt P50750: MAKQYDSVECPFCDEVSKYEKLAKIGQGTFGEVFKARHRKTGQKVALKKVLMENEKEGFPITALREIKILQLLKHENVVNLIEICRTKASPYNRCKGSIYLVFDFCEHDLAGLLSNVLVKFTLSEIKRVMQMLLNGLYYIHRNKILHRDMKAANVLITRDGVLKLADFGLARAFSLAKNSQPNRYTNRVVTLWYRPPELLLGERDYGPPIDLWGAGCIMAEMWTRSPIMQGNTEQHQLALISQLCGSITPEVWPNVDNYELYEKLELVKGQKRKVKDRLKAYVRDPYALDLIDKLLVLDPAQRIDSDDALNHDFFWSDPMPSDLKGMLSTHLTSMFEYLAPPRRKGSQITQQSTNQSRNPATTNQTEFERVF
UniProt O94992: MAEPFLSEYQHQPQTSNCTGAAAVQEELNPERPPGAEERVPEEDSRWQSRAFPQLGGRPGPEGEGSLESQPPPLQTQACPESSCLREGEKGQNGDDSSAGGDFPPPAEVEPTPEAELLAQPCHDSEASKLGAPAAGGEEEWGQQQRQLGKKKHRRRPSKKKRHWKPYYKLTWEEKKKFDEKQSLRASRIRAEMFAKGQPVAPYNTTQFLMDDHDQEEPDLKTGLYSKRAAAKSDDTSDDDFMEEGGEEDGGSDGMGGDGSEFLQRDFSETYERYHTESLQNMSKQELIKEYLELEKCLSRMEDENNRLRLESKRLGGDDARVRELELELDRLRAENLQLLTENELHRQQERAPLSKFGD

binding: binds
Substance: hexamethylene bisacetamide inducible protein 1 (HEXIM1) (from UniProt O94992 1-359)

Source: publication PMC4520688
